From PMC3400628
Results are given in words; binding and its absence hold for the method and conditions named. For part of these data: Binding seen in cells or lysates may run through a third protein. Some binding calls cover weakened binding; strength is not graded here. For part of these data: Where a sequence is shown, tags or fusion partners need not be part of it. Each block holds one substance with its values, some of them ahead of it.

The chains behind the UniProt entries cited, without tags or fusion partners.
UniProt Q86XT4: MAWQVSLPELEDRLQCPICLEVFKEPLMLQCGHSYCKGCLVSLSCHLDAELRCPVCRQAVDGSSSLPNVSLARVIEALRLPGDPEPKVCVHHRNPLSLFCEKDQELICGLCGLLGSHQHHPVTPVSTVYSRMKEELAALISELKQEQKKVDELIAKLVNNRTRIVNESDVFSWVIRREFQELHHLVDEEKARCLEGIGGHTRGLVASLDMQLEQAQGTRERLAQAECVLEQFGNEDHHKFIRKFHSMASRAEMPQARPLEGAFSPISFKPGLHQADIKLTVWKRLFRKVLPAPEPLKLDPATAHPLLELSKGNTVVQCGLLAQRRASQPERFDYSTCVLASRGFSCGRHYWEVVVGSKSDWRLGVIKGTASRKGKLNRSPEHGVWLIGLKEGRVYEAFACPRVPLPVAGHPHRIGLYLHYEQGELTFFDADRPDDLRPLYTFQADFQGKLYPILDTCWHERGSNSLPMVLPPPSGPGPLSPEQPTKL

Legend:
myc-TRIM27 WT (human) = target: T1, myc-TRIM27 WT (human) (UniProt P14373); experiment: co-IP; reciprocal: HEK293T transiently transfected; myc-tagged TRIM27 precipitated with anti-myc beads (9E10) 3 h at 4°C; immunoblot
T1 sequence: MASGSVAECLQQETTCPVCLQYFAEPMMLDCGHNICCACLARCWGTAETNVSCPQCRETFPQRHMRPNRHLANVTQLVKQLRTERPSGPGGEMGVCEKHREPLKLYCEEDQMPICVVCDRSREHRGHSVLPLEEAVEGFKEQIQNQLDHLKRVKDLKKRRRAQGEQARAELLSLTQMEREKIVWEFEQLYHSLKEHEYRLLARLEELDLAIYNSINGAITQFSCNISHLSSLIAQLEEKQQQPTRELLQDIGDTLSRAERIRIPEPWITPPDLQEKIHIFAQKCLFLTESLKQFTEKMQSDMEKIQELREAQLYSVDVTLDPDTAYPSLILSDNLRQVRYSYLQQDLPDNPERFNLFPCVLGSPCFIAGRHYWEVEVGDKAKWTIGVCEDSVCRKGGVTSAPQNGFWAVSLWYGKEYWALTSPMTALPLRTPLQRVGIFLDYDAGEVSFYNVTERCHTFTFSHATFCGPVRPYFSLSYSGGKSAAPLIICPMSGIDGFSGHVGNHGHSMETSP

[1] = target: T2, human TRIM27 (yeast two-hybrid fusion) (human) (UniProt P14373); experiment: two-hybrid; binary LexA/B42 yeast two-hybrid; baits in pEG202, preys in pJG4-5; EGY42/EGY48 diploids by mating; reporters lacZ (blue colonies) and LEU2 (growth without Leu)
T2 sequence: T1 sequence

[2] = target: human TRIM50 (yeast two-hybrid fusion) (human) (UniProt Q86XT4); experiment: as above
GST-TRIM27 WT (human) = target: T3, GST-TRIM27 WT (human) (UniProt P14373); experiment: pull-down; GST or GST-TRIM27 proteins on glutathione-Sepharose beads; [35S]-labeled IVT NOD2 diluted three times in PBS, 2 h at 4°C; five washes with RIPA buffer; autoradiograph; only the target purified
T3 sequence: T1 sequence

GST-TRIM27 ΔRING (human) = target: T4, GST-TRIM27 ΔRING (human) (UniProt P14373); experiment: as above
T4 sequence: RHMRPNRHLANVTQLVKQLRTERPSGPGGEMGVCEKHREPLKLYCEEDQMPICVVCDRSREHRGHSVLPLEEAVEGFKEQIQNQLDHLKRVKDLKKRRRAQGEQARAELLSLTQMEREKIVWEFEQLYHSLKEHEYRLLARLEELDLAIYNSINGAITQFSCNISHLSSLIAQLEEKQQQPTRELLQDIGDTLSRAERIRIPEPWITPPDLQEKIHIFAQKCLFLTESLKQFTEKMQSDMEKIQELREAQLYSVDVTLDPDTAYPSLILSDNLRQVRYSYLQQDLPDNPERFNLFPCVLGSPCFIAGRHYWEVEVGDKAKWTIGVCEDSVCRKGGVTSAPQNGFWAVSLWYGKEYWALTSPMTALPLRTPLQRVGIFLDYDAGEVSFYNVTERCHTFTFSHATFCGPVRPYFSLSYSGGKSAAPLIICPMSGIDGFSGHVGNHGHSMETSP

[3] = target: T5, GST-TRIM27 ΔRING+B-Box (human) (UniProt P14373); experiment: as above
T5 sequence: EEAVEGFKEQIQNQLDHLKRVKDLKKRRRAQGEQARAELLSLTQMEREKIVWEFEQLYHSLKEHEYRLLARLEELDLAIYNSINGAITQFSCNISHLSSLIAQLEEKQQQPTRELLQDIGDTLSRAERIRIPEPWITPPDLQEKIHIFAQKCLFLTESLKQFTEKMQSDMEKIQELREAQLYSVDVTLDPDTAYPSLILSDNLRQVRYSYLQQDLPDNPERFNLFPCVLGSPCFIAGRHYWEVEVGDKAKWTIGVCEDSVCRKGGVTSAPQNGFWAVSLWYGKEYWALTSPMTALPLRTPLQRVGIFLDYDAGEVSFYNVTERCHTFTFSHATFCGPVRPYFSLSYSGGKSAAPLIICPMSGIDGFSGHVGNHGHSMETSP

- binding (myc-TRIM27 WT (human)): binds
Substance: Flag-NOD2 (from UniProt Q9HC29 1-1040)

- binding [1]: binds
Substance: human NOD2 full length (yeast two-hybrid fusion) (from UniProt Q9HC29 1-1040)

- binding [2]: binds
Substance: human TRIM50 (yeast two-hybrid fusion) (from UniProt Q86XT4 1-487)

- binding (GST-TRIM27 WT (human)): binds
- binding (GST-TRIM27 ΔRING (human)): binds
- binding [3]: binds
Substance: in vitro transcribed and translated [35S]-methionine-labeled NOD2 (from UniProt Q9HC29 1-1040)
